PubChem BioAssay AID1053208 – Peter MacCallum Cancer Centre, 2014
Aim: 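Find knock-downs that sensitise mouse osteosarcoma cells to doxorubicin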 (primary screen). Cell system: mouse osteosarcoma cells, early-passage culture from an engineered mouse model of fibroblastic bone tumour. Reagent: siRNA pool against mouse genes, 40 nM. Timing: about 120 h (48 h before drug, then 72 h with drug). Treatment: doxorubicin 100 nM for 72 h, roughly 30-40% inhibitory dose. Measurement: 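Viability read as ATP luminescence after 72 h of 100 nM doxorubicin or none, duplicate wells averaged, scaled to non-targeting siRNA, then expressed as robust z-scores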. Direction: viability z-score with doxorubicin: higher = more viable cells under doxorubicin; viability z-score without drug: higher = more viable cells with knock-down alone. Active means: 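Called active if knock-down leaves viability unchanged without drug (z within -2 to 2) but lowers it with doxorubicin (z at or under -2)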.
Shown is an unselected part of about 17,000 reagents tested. Of all reagents, 788 (4.7%) got an active call. 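Calls rest on z-score classes alone; an extra cut-off of viability at most 70% of control was not applied to them.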 The numbers tell different reagents against one gene apart. Not all columns of the deposit are shown.

With Pkd1l2 (GeneID 76645), how do the results read?
combined z-score class: no change with or without drug; viability z-score with doxorubicin: -0.9; viability z-score without drug: 0.51; call: inactive

What did the screen give for Or6d15 (GeneID 258438)?
combined z-score class: no change with or without drug; viability z-score with doxorubicin: -0.67; viability z-score without drug: 0.34; call: inactive

For Foxe1 (GeneID 110805), what does the deposit list?
combined z-score class: no change with or without drug; viability z-score with doxorubicin: 0.45; viability z-score without drug: 0.84; call: inactive

With 4933421H10RIK, what was measured?
combined z-score class: no change with or without drug; viability z-score with doxorubicin: -0.67; viability z-score without drug: 0.51; call: inactive

For Or2y8 (GeneID 211472), what was measured?
combined z-score class: low cell count without drug only; viability z-score with doxorubicin: 0.34; viability z-score without drug: -2.19; call: inactive

How did the screen score Cfap20 (GeneID 14894)?
combined z-score class: no change with or without drug; viability z-score with doxorubicin: 0.22; viability z-score without drug: 0.67; call: inactive

What did the screen give for Mvb12b (GeneID 72543)?
combined z-score class: no change with or without drug; viability z-score with doxorubicin: 0.56; viability z-score without drug: -0.51; call: inactive

How did the screen score Atg13 (GeneID 51897)?
combined z-score class: no change with or without drug; viability z-score with doxorubicin: 0.9; viability z-score without drug: 1.52; call: inactive

With Lin7c (GeneID 22343), how do the results read?
combined z-score class: no change with or without drug; viability z-score with doxorubicin: -1.46; viability z-score without drug: -0.84; call: inactive

How did the screen score Tm6sf1 (GeneID 107769)?
combined z-score class: high cell count with doxorubicin only; viability z-score with doxorubicin: 2.02; viability z-score without drug: 1.18; call: inactive

What is on record for Ptprc (GeneID 19264)?
combined z-score class: no change with or without drug; viability z-score with doxorubicin: 1.12; viability z-score without drug: 0.17; call: inactive

With Or10x1 (GeneID 258238), how do the results read?
combined z-score class: no change with or without drug; viability z-score with doxorubicin: -0.22; viability z-score without drug: -0.34; call: inactive

How did the screen score Pvr (GeneID 52118) #1?
combined z-score class: no change with or without drug; viability z-score with doxorubicin: -0.67; viability z-score without drug: -0.84; call: inactive

With Pvr (GeneID 52118) #2, what does the deposit list?
combined z-score class: no change with or without drug; viability z-score with doxorubicin: -0.67; viability z-score without drug: 0.51; call: inactive

What did the screen give for Or1e1f (GeneID 258343)?
combined z-score class: no change with or without drug; viability z-score with doxorubicin: 0.22; viability z-score without drug: 0.84; call: inactive

Which result is listed for Or5w20 (GeneID 258633)?
combined z-score class: low cell count with and without drug; viability z-score with doxorubicin: -3.37; viability z-score without drug: -2.02; call: inactive

How did the screen score Rnf220 (GeneID 66743)?
combined z-score class: no change with or without drug; viability z-score with doxorubicin: -0.34; viability z-score without drug: -0.84; call: inactive

With Chrna9 (GeneID 231252), what was measured?
combined z-score class: no change with or without drug; viability z-score with doxorubicin: -1.46; viability z-score without drug: -0.51; call: inactive

What is on record for Igfbp1 (GeneID 16006)?
combined z-score class: no change with or without drug; viability z-score with doxorubicin: 0.22; viability z-score without drug: -0.84; call: inactive

What did the screen give for Med29 (GeneID 67224)?
combined z-score class: high cell count with doxorubicin only; viability z-score with doxorubicin: 2.25; viability z-score without drug: 1.52; call: inactive

What did the screen give for 4933414I15Rik (GeneID 74408)?
combined z-score class: high cell count without drug only; viability z-score with doxorubicin: 1.91; viability z-score without drug: 3.04; call: inactive

With Snrpg (GeneID 68011), what was measured?
combined z-score class: low cell count with and without drug; viability z-score with doxorubicin: -5.4; viability z-score without drug: -4.72; call: inactive

What is on record for Gm9517 (GeneID 67107)?
combined z-score class: no change with or without drug; viability z-score with doxorubicin: -0.22; viability z-score without drug: -0.17; call: inactive

Laid out differently: entries from further up
target gene	reagent	combined z-score class	viability z-score with doxorubicin	viability z-score without drug	call
Atg13 (GeneID 51897)	1	no change with or without drug	0.9	1.52	inactive
Lin7c (GeneID 22343)	1	no change with or without drug	-1.46	-0.84	inactive
Tm6sf1 (GeneID 107769)	1	high cell count with doxorubicin only	2.02	1.18	inactive
Ptprc (GeneID 19264)	1	no change with or without drug	1.12	0.17	inactive
Or10x1 (GeneID 258238)	1	no change with or without drug	-0.22	-0.34	inactive
Pvr (GeneID 52118)	1	no change with or without drug	-0.67	-0.84	inactive

The list goes on.
With Bsg (GeneID 12215), how do the results read?
combined z-score class: no change with or without drug; viability z-score with doxorubicin: -0.9; viability z-score without drug: -1.18; call: inactive

With Or5w13 (GeneID 258653), what was measured?
combined z-score class: no change with or without drug; viability z-score with doxorubicin: 0; viability z-score without drug: -0.51; call: inactive

For Plcb3 (GeneID 18797), what does the deposit list?
combined z-score class: no change with or without drug; viability z-score with doxorubicin: 0.9; viability z-score without drug: 1.18; call: inactive

For Guf1 (GeneID 231279), how do the results read?
combined z-score class: no change with or without drug; viability z-score with doxorubicin: -0.67; viability z-score without drug: -0.51; call: inactive

What is on record for Scnn1g (GeneID 20278)?
combined z-score class: no change with or without drug; viability z-score with doxorubicin: -1.35; viability z-score without drug: -0.34; call: inactive

With Cidec (GeneID 14311), how do the results read?
combined z-score class: no change with or without drug; viability z-score with doxorubicin: -0.45; viability z-score without drug: -0.17; call: inactive

What is on record for Gltpd2 (GeneID 216871)?
combined z-score class: no change with or without drug; viability z-score with doxorubicin: 0.67; viability z-score without drug: 0.34; call: inactive

What is on record for Top3b (GeneID 21976)?
combined z-score class: no change with or without drug; viability z-score with doxorubicin: 0.45; viability z-score without drug: 0.34; call: inactive

With Eno1 (GeneID 13806), how do the results read?
combined z-score class: no change with or without drug; viability z-score with doxorubicin: -1.8; viability z-score without drug: 1.52; call: inactive

How did the screen score Ing5 (GeneID 66262)?
combined z-score class: no change with or without drug; viability z-score with doxorubicin: 0.67; viability z-score without drug: 0.84; call: inactive

How did the screen score Or8g51 (GeneID 258432)?
combined z-score class: no change with or without drug; viability z-score with doxorubicin: 1.57; viability z-score without drug: 1.18; call: inactive

What did the screen give for Tfe3 (GeneID 209446)?
combined z-score class: high cell count without drug only; viability z-score with doxorubicin: 0.9; viability z-score without drug: 2.02; call: inactive

How did the screen score Ago1 (GeneID 236511)?
combined z-score class: no change with or without drug; viability z-score with doxorubicin: -1.91; viability z-score without drug: -0.17; call: inactive
